The results in this text go back to patent US20140350088.

The chains behind the UniProt entries cited, without tags or fusion partners. Residues count along the entry.
UniProt P01275, 53-81: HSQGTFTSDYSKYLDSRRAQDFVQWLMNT

The target of data set [1] is T1, human alpha-CGRP (Homo sapiens) (UniProt P06881).
T1 sequence: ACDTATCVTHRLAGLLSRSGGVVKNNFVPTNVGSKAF
In words: SPR. Conditions: L-RNA, synthetic protein, mirror-image nucleic acid.

The target of data set [2] is biotinylated human glucagon (Homo sapiens) (UniProt P01275). In words: competition with a labelled probe. Conditions: L-DNA, synthetic protein; for binding result: 37 C, synthetic backbone.

Construct, isoform or probe ends are uncertain for at least one entry. A weaker result is weaker than the reference pair of the same experiment. For part of these data: Where a protein sequence is shown, tags need not be part of it. For part of these data: Whether high values mean tight binding is not given here for every scale.

Regarding “CCGTGCUGUCGGAGACUACUCGUCGAGUAGAAAUAGGUCCCCUCCCACGG [226-F2-001-D04]”, the binding result in data set [1] (dT at 4, affinity unchanged vs parent, variant of 226-F2-001) is reported as “binds”.
Take “CCGUGCTGUCGGAGACUACUCGUCGAGUAGAAAUAGGUCCCCUCCCACGG [226-F2-001-D07]”: the binding result in data set [1] (dT at 7, reduced or lost binding vs parent, variant of 226-F2-001) is recorded as “binds more weakly”.
Take “CCGUGCUGTCGGAGACUACUCGUCGAGUAGAAAUAGGUCCCCUCCCACGG [226-F2-001-D09]”: the binding result in data set [1] (dT at 9, improved vs parent, 37 C, synthetic backbone) is listed as “binds”.
As to “CCGUGCUGUCGGAGACTACUCGUCGAGUAGAAAUAGGUCCCCUCCCACGG [226-F2-001-D17]”, the binding result in data set [1] (dT at 17, reduced or lost binding vs parent, variant of 226-F2-001) is reported as “binds more weakly”.
Turning to “CCGUGCUGUCGGAGACUACTCGUCGAGUAGAAAUAGGUCCCCUCCCACGG [226-F2-001-D20]”, the binding result in data set [1] (dT at 20, reduced or lost binding vs parent, variant of 226-F2-001) is “binds more weakly”.
Take “CCGUGCUGUCGGAGACUACUCGTCGAGUAGAAAUAGGUCCCCUCCCACGG [226-F2-001-D23]”: the binding result in data set [1] (dT at 23, improved vs parent, 37 C, synthetic backbone) is on record as “binds”.
As for “CCGUGCUGUCGGAGACUACUCGUCGAGTAGAAAUAGGUCCCCUCCCACGG [226-F2-001-D28]”, the binding result in data set [1] (dT at 28, improved vs parent, 37 C, synthetic backbone) is “binds”.
In the case of “CCGUGCUGUCGGAGACUACUCGUCGAGUAGAAATAGGUCCCCUCCCACGG [226-F2-001-D34]”, the binding result in data set [1] (dT at 34, improved vs parent, 37 C, synthetic backbone) is on record as “binds”.
Take “CCGUGCUGUCGGAGACUACUCGUCGAGUAGAAAUAGGTCCCCUCCCACGG [226-F2-001-D38]”: the binding result in data set [1] (dT at 38, reduced or lost binding vs parent, variant of 226-F2-001) was “binds more weakly”.
For the sequence “CCGUGCUGUCGGAGACUACUCGUCGAGUAGAAAUAGGUCCCCTCCCACGG [226-F2-001-D43]”, in data set [1] (dT at 43, reduced or lost binding vs parent, variant of 226-F2-001), the binding result is given as “binds more weakly”.
For the sequence “CCGUGCUGUCGGAGACUACUCGUCGAGUAGAAAUAGGUCCCCUCCCACGG [226-F2-001-D01]”, the binding result in data set [1] (dC at 1, reduced or lost binding vs parent, variant of 226-F2-001) is reported as “binds more weakly”.
For “CCGUGCUGUCGGAGACUACUCGUCGAGUAGAAAUAGGUCCCCUCCCACGG [226-F2-001-D02]”, in data set [1] (dC at 2, reduced or lost binding vs parent, variant of 226-F2-001), the binding result was “binds more weakly”.
Take “CCGUGCUGUCGGAGACUACUCGUCGAGUAGAAAUAGGUCCCCUCCCACGG [226-F2-001-D03]”: the binding result in data set [1] (2'-deoxy at 3, improved vs parent, 37 C, synthetic backbone) was “binds”.
On to “CCGUGCUGUCGGAGACUACUCGUCGAGUAGAAAUAGGUCCCCUCCCACGG [226-F2-001-D05]”, for which the binding result in data set [1] (2'-deoxy at 5, improved vs parent, 37 C, synthetic backbone) is given as “binds”.
For “CCGUGCUGUCGGAGACUACUCGUCGAGUAGAAAUAGGUCCCCUCCCACGG [226-F2-001-D06]”, the binding result in data set [1] (dC at 6, reduced or lost binding vs parent, variant of 226-F2-001) is “binds more weakly”.
As to “CCGUGCUGUCGGAGACUACUCGUCGAGUAGAAAUAGGUCCCCUCCCACGG [226-F2-001-D08]”, in data set [1] (2'-deoxy at 8, improved vs parent, 37 C, synthetic backbone), the binding result is listed as “binds”.
Take “CCGUGCUGUCGGAGACUACUCGUCGAGUAGAAAUAGGUCCCCUCCCACGG [226-F2-001-D10]”: the binding result in data set [1] (dC at 10, reduced or lost binding vs parent, variant of 226-F2-001) is on record as “binds more weakly”.
“CCGUGCUGUCGGAGACUACUCGUCGAGUAGAAAUAGGUCCCCUCCCACGG [226-F2-001-D11]”: in data set [1] (dG at 11, reduced or lost binding vs parent, variant of 226-F2-001), the binding result is “binds more weakly”.
“CCGUGCUGUCGGAGACUACUCGUCGAGUAGAAAUAGGUCCCCUCCCACGG [226-F2-001-D12]”: the binding result in data set [1] (dG at 12, reduced or lost binding vs parent, variant of 226-F2-001) is “binds more weakly”.
For the sequence “CCGUGCUGUCGGAGACUACUCGUCGAGUAGAAAUAGGUCCCCUCCCACGG [226-F2-001-D13]”, the binding result in data set [1] (dA at 13, reduced or lost binding vs parent, variant of 226-F2-001) was “binds more weakly”.
In the case of “CCGUGCUGUCGGAGACUACUCGUCGAGUAGAAAUAGGUCCCCUCCCACGG [226-F2-001-D14]”, the binding result in data set [1] (2'-deoxy at 14, improved vs parent, 37 C, synthetic backbone) is on record as “binds”.
Regarding “CCGUGCUGUCGGAGACUACUCGUCGAGUAGAAAUAGGUCCCCUCCCACGG [226-F2-001-D15]”, in data set [1] (dA at 15, reduced or lost binding vs parent, variant of 226-F2-001), the binding result was “binds more weakly”.
Regarding “CCGUGCUGUCGGAGACUACUCGUCGAGUAGAAAUAGGUCCCCUCCCACGG [226-F2-001-D16]”, the binding result in data set [1] (2'-deoxy at 16, improved vs parent, 37 C, synthetic backbone) is given as “binds”.
As to “CCGUGCUGUCGGAGACUACUCGUCGAGUAGAAAUAGGUCCCCUCCCACGG [226-F2-001-D18]”, in data set [1] (dA at 18, reduced or lost binding vs parent, variant of 226-F2-001), the binding result is “binds more weakly”.
With “CCGUGCUGUCGGAGACUACUCGUCGAGUAGAAAUAGGUCCCCUCCCACGG [226-F2-001-D19]”, in data set [1] (dC at 19, among best improved single substitutions, variant of 226-F2-001), the binding result is recorded as “binds”.
“CCGUGCUGUCGGAGACUACUCGUCGAGUAGAAAUAGGUCCCCUCCCACGG [226-F2-001-D21]”: the binding result in data set [1] (dC at 21, reduced or lost binding vs parent, variant of 226-F2-001) is listed as “binds more weakly”.
With “CCGUGCUGUCGGAGACUACUCGUCGAGUAGAAAUAGGUCCCCUCCCACGG [226-F2-001-D22]”, the binding result in data set [1] (2'-deoxy at 22, improved vs parent, 37 C, synthetic backbone) was “binds”.
On to “CCGUGCUGUCGGAGACUACUCGUCGAGUAGAAAUAGGUCCCCUCCCACGG [226-F2-001-D24]”, for which, in data set [1] (2'-deoxy at 24, improved vs parent, 37 C, synthetic backbone), the binding result is listed as “binds”.
Take “CCGUGCUGUCGGAGACUACUCGUCGAGUAGAAAUAGGUCCCCUCCCACGG [226-F2-001-D25]”: the binding result in data set [1] (2'-deoxy at 25, improved vs parent, 37 C, synthetic backbone) is “binds”.
As to “CCGUGCUGUCGGAGACUACUCGUCGAGUAGAAAUAGGUCCCCUCCCACGG [226-F2-001-D26]”, the binding result in data set [1] (2'-deoxy at 26, improved vs parent, 37 C, synthetic backbone) is on record as “binds”.
As to “CCGUGCUGUCGGAGACUACUCGUCGAGUAGAAAUAGGUCCCCUCCCACGG [226-F2-001-D27]”, the binding result in data set [1] (dG at 27, affinity unchanged vs parent, variant of 226-F2-001) was “binds”.
For the sequence “CCGUGCUGUCGGAGACUACUCGUCGAGUAGAAAUAGGUCCCCUCCCACGG [226-F2-001-D29]”, the binding result in data set [1] (dA at 29, reduced or lost binding vs parent, variant of 226-F2-001) is listed as “binds more weakly”.
For “CCGUGCUGUCGGAGACUACUCGUCGAGUAGAAAUAGGUCCCCUCCCACGG [226-F2-001-D30]”, in data set [1] (2'-deoxy at 30, improved vs parent, 37 C, synthetic backbone), the binding result was “binds”.
“CCGUGCUGUCGGAGACUACUCGUCGAGUAGAAAUAGGUCCCCUCCCACGG [226-F2-001-D31]”: the binding result in data set [1] (dA at 31, reduced or lost binding vs parent, variant of 226-F2-001) is recorded as “binds more weakly”.
On to “CCGUGCUGUCGGAGACUACUCGUCGAGUAGAAAUAGGUCCCCUCCCACGG [226-F2-001-D32]”, for which, in data set [1] (dA at 32, reduced or lost binding vs parent, variant of 226-F2-001), the binding result was “binds more weakly”.
With “CCGUGCUGUCGGAGACUACUCGUCGAGUAGAAAUAGGUCCCCUCCCACGG [226-F2-001-D33]”, the binding result in data set [1] (2'-deoxy at 33, improved vs parent, 37 C, synthetic backbone) is given as “binds”.
On to “CCGUGCUGUCGGAGACUACUCGUCGAGUAGAAAUAGGUCCCCUCCCACGG [226-F2-001-D35]”, for which the binding result in data set [1] (dA at 35, reduced or lost binding vs parent, variant of 226-F2-001) is on record as “binds more weakly”.
On to “CCGUGCUGUCGGAGACUACUCGUCGAGUAGAAAUAGGUCCCCUCCCACGG [226-F2-001-D36]”, for which the binding result in data set [1] (dG at 36, reduced or lost binding vs parent, variant of 226-F2-001) is “binds more weakly”.
Turning to “GCAGTGGGGAAATGGGAGGGCUAGGTGGAAGGAATCTGAGCTACTGC [257-E1-R22-001]”, the binding result in data set [2] (rU at 22, reduced or lost vs parent, mirror-image nucleic acid) is reported as “binds more weakly”.
As to “GCAGTGGGGAAAUGGGAGGGCTAGGTGGAAGGAATCTGAGCTACTGC [257-E1-R13-001]”, the binding result in data set [2] (rU at 13, reduced or lost vs parent, mirror-image nucleic acid) is “binds more weakly”.
With “GCAGUGGGGAAATGGGAGGGCTAGGTGGAAGGAATCTGAGCTACTGC [257-E1-R5-001]”, the binding result in data set [2] (rU at 5, printed as 257-E5-R1-001 (position 5), reduced or lost, 1 mM Mg, 1 mM Ca, mirror-image nucleic …) is listed as “binds more weakly”.
“GCGCGGGGAAATGGGAGGGCTAGGTGGAAGGAATCTGAGCCGCGC [257-E1-7xR-023]” gave a binding signal in data set [2] (rG at 8, 14, 17, 18, rT (5-methyl-uridine) at 25, rA at 28, 29 (own numbering), affinity improved vs 257-E1-001, competitive pull-down 37 C, mirror-image nucleic acid, variant of 257-E1-001) of 43 fold.
